Legend:
[1] = general procedure: Fmoc solid-phase peptide synthesis; NovaSyn TGR resin; conditions: whole synthesis
[2] = general procedure: Fmoc solid-phase peptide synthesis; H-Cys(Trt)-2-ClTrt resin; conditions: whole synthesis, scale 34.2 umol
[3] = general procedure: Fmoc solid-phase peptide synthesis; Rink amide MBHA resin; conditions: whole synthesis, scale 16.5 umol

| Substance | crude mass ([1]; scale 12.6 umol) [mg] | isolated mass ([1]; scale 12.6 umol) [mg] | other results |
| --- | --- | --- | --- |
| H-CMLEKLGVPKTHLELKKLIREVSSGSEETFSYSDFLRMML-NH2 | 58.6 | 5.9 |  |
| H-MMEKLGVPKTHLEMKKMISEVTGGVSDTISYRDFVNMML-NH2 | 55.2 | 12.0 |  |
| H-CMLEKLGVPKTHLELKKLIGEVSSGSGETFSYPDFLRMML-NH2 |  |  | crude mass ([1]; scale 12.5 umol): 54.2 mg; isolated mass ([1]; scale 12.5 umol): 8.7 mg |
| H-MLEKLGVPKTHLELKRLIREVSSGSEETFSYSDFLRMML-NH2 | 66.7 | 14.4 |  |
| H-Leu-Ser-Pro-His-Thr-Lys-Leu-Ser-Tyr-Arg-Glu-Glu-Val-Phe-Leu-Arg-Leu-Ser-Lys-Ser-Glu-Gly-Leu-Met-Glu-Ile-LYB-Leu-Met-Glu-Asp-Leu-Met-val-Phe-Ser-Arg-Thr-Gly-NH2 (LSPHTKLSYREEVFLRLSKSEGLMEIKLMEDLMVFSRTG; C-terminal amide; non-natural residues LYB, D-Val; variant of peptide 2 (SEQ ID NO37)) | 69.6 | 13.2 |  |
| H-LSPHTKLSYGEGVFLRLSKSEGLMEIKLMEDLMVFPKTG-NH2 | 59.3 | 10.3 |  |
| H-LIREVSSGSEETFSYSDFLRMML-NH2 | 38.3 | 11.7 |  |
| H-Val-Thr-Pro-His-Thr-Lys-Leu-Val-Tyr-Ser-Glu-Ser-Val-Ile-Met-Asn-Met-Ser-Lys-Gly-Glu-Gly-Leu-Met-Glu-Ile-Lys-Leu-Met-Asp-Asp-Met-Met-Thr-Phe-Arg-Lys-val-Gly-NH2 (VTPHTKLVYSESVIMNMSKGEGLMEIKLMDDMMTFRKVG; C-terminal amide; D-Val; variant of peptide 3 (SEQ ID NO38)) | 60.3 | 8.7 |  |
| H-Met-Met-Glu-Lys-Leu-Gly-val-Pro-Lys-Thr-His-Leu-Glu-Met-Lys-Cys-OH |  |  | crude mass [2]: 38.2 mg; isolated mass [2]: 27.5 mg |
| H-CLIGEVSSGSGETFSYPDFLRMML-NH2 |  |  | crude mass [3]: 48.9 mg; isolated mass [3]: 11.6.mg |

From patent US20040081972A1 (priority 2000, published 2004)
